The numbers were not newly measured in patent publication US20190262453A1, “DESIGN AND COMPOSITION OF CELL-STABILIZED PHARMACEUTICAL FORMULATIONS” (THE REGENTS OF THE UNIVERSITY OF MICHIGAN, priority 2016, published 2019), which cites them from elsewhere.

The conditions of this data set: in vivo; cited from earlier work.

One may read the Vd as a proportionality between amount in the body and measured concentration, not a real space. With `CN1CC[C@]23c4c5ccc(O)c4O[C@H]2[C@@H](O)C=C[C@H]3[C@H]1C5` [Morphine], the Vd was 3.3 L/kg.
